PubChem BioAssay AID504786, Drosophila RNAi Screening Center – 2011
In all, the deposit lists about 21,000 reagents; shown is an unselected part of those with a known target gene and a result. 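Primary screen; positive scores mean lost reporter signal, so the sign may be inverted from the usual convention.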 Reagents against one gene are numbered here.

- Assay: 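Knock-downs reducing HIF reporter induction by the iron chelator DFO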 (primary screen)
- Cell system: Drosophila S2 cells with a stable HIF luciferase reporter
- Reagent: long dsRNA against Drosophila genes, about 0.2 µg dsRNA per well of a 384-well plate
- Duration: three days of knock-down, then 20 h of DFO before reading
- Conditions: desferrioxamine (DFO) at 100 µM, an iron chelator that mimics hypoxia, for 20 h
- Measured: 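Firefly luciferase driven by the mouse ldh-a hypoxia-response element, measured after 20 h of 100 µM DFO; z-scores per plate, higher means more signal lost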
- Direction: z-score: higher = stronger loss of HIF reporter signal

| gene | dsRNA no. | z-score, replicate 1 | z-score, replicate 2 |
| --- | --- | --- | --- |
| EAChm | 1 | -0.2 | -0.4 |
| wkd | 1 | -0.3 | -0.5 |
| CG1227 | 1 | -0.3 | -0.3 |
| CG34225 | 1 | -0.2 | -0.2 |
| CG32236 | 1 | -0.5 | 0.8 |
| dpr12 | 1 | 0.1 | 0.1 |
| dpr12 | 2 | -0.1 | 0.2 |
| dpr12 | 3 | -0.2 | -0.3 |
| ear | 1 | 0.3 | 0.8 |
| Ctl1 | 1 | -0.2 | -0.2 |
| Atg12 | 1 | -0.1 | 0 |
| Spc105R | 1 | 2.4 | 2.4 |
| Liprin-gamma | 1 | -1 | -0.4 |
| CG34292 | 1 | -0.3 | 0.1 |
| CG13073 | 1 | -0.4 | 0 |
| ninaE | 1 | -1.1 | -1 |
| CG9641 | 1 | -0.3 | 0.9 |
| CycD | 1 | 0.5 | 0.9 |
| CG33630 | 1 | -0.2 | -0.3 |
| Nufip | 1 | -0.3 | -0.2 |
| bb8 | 1 | -0.1 | -0.2 |
| CG13014 | 1 | -0.3 | -0.7 |
| CG1271 | 1 | -0.2 | 0.2 |
| CG11699 | 1 | -0.3 | -0.6 |
| wds | 1 | -0.1 | 1.4 |
| Nhe1 | 1 | -0.2 | -0.1 |
| mRpS14 | 1 | 0.7 | 0.4 |
| GatB | 1 | 0.3 | 0.1 |
| CG17186 | 1 | -0.4 | -0.2 |
| CG31115 | 1 | 0 | -0.1 |
| CG10344 | 1 | -0.2 | 0.1 |
| CG9624 | 1 | -0.1 | -0.2 |
| HmgD | 1 | -0.2 | 0 |
| CG3604 | 1 | -0.1 | 0.2 |
